Results as given in PubChem BioAssay AID504444 (National Center for Advancing Translational Sciences (NCATS), 2011).
The campaign covered roughly 360,000 compounds. About 7,500 (2.1%) were called active. Inconclusive means that the source gave no clear call. Such entries were picked first, then a sample of the others. The call rests on the fitted dose curve; in most records, active means well fitted inhibition curve with a large enough effect; inconclusive means small, poorly fitted or top-dose-only effect, or effect the other way; inactive means flat fitted curve, though single readings scatter. Potencies beside an inconclusive call are fits to weak or partial responses and may not hold up.

Test: Nrf2 qHTS screen for inhibitors; further: nearly all actives have a fitted effect of over 60% in size
Conditions: A549 ARE-Fluc reporter, luciferase luminescence, 18-24 h; series mostly up to 46 µM
How it was run: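 Reporter: ARE-Fluc in A549. Exposure: 18-24 h, 37 °C, 5% CO2, 5% FBS OPTI-MEM. Readouts: fluorescent cytotoxicity (CellTiter-Fluor), then luminescent Nrf2 signal after BugLite.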
Potency means the concentration at half of the fitted maximal effect.

Structure (SMILES)	Potency
O=C(COc1ccc(/C=N/NC(=O)c2ccccc2O)cc1)Nc1ccccc1	inconclusive: 29.1 µM [activator, single point]
CC1Cc2ccccc2N1Cc1cc(=O)c(OCC(=O)NCCc2ccccc2)co1 (centres undefined)	inconclusive: 8.2 µM [falling, partial curve]
N#C/C(=C/c1cn(-c2ccccc2)nc1-c1cccc(OCc2ccc(F)cc2)c1)C(=O)NCCCn1ccnc1	inconclusive: 25.9 µM [falling, single point]
CN(Cc1ccc(Cl)c(Cl)c1)C(=O)c1cccc(S(=O)(=O)N2CCN(Cc3ccccc3)CC2)c1	active: 9.2 µM
Nc1nc(N)c2cc(Sc3ccc4ccccc4c3)ccc2n1	inconclusive: 18.4 µM [falling, single point]
Clc1ccc(-c2c(C3=NCCCN3)nnn2-c2ccc(Cl)cc2)cc1	inconclusive: 1.3 µM [falling, full curve]
CCOc1ccc(N2C(=O)/C(=C/c3cc(OC)c(OC)c(OC)c3)N(CC(=O)OC)C2=S)cc1	inconclusive: 18.4 µM [falling, partial curve]
Cc1cc(CN(C)C)c(O)c(C2(C)CCCCC2)c1	inactive
N#Cc1cnc(Oc2ccc(Cl)cc2)nc1N	inconclusive: 23.1 µM [activator, partial curve]
CSc1ccccc1NC(=S)Nc1ccc(S(N)(=O)=O)cc1	inactive
CCOC(=O)c1cc(-c2ccccc2)sc1NC(=O)C(C)Sc1nnnn1C (centres undefined)	inconclusive: 16.4 µM [falling, single point]
Cc1ccc(C(=O)Nc2cccc(C(F)(F)F)c2)cc1Nc1cncnc1	inconclusive: 14.6 µM [falling, partial curve, poor fit]
COc1ccc(/C=C(\C#N)C(=O)Nc2cccc3ncccc23)cc1OC	inconclusive: 20.6 µM [activator, partial curve]
COc1cc(CC(=O)N2CCc3ccccc32)cc(OC)c1OC	inconclusive: 13 µM [falling, partial curve, poor fit]
Cc1c(Cl)cccc1NC(=O)CSc1nnc(C)n1-c1ccccc1	inconclusive: 8.2 µM [falling, partial curve, poor fit]
Cc1cc(C)c2c(n1)sc1c(O)cc(=O)[nH]c12	inconclusive: 0.164 µM [falling, full curve, poor fit]
COC(=O)c1[nH]c2ccc(Cl)cc2c1NC(=O)Oc1ccccc1	inactive
CCc1ccc(OCC(=O)N/N=C/c2cc([N+](=O)[O-])ccc2N2CCOCC2)cc1	inconclusive: 20.6 µM [falling, single point]
O=C(Nc1ccc2nc(SCC(=O)N3CCCc4ccccc43)sc2c1)c1ccccc1	active: 11.6 µM
Fc1ccccc1CN(CCN1CCOCC1)C(=S)Nc1ccccc1Cl	inconclusive: 20.6 µM [falling, single point]
Cc1[nH]c2ccccc2c1C(=O)COC(=O)c1c(-c2ccccc2Cl)noc1C	inconclusive: 18.4 µM [falling, single point]
CC(C)(C)C(=O)COC(=O)c1ccc(N)c([N+](=O)[O-])c1	inconclusive: 25.9 µM [falling, single point]
CCOC(=O)c1ccc(NC(=O)Nc2cc3c(cc2N2CCCC2)n(C)c(=O)n3C)cc1	inconclusive: 14.6 µM [falling, partial curve, poor fit]

Structure (SMILES)	Potency
Cc1cc(CC(=O)O)n(C)c1C(=O)c1ccc(Cl)cc1	inconclusive: 0.103 µM [activator, full curve, poor fit]
COC(=O)c1cc(NC(=O)c2nn(C)c3c2COc2ccccc2-3)cc(C(=O)OC)c1	inactive
Nc1c(C(=O)Nc2ccc(F)c(F)c2)sc2nc(-c3ccncc3)ccc12	inactive
CC(NC(=O)CN1CCN(c2ccc(Cl)cc2)CC1)c1ccccc1 (centres undefined)	inconclusive: 25.9 µM [falling, partial curve, poor fit]
Cc1cc(N)n2ncc(-c3cccc(Br)c3)c2n1	inconclusive: 10.3 µM [activator, partial curve]
COc1ccc(C)cc1NC(=O)CN1C(=O)c2cccc3cccc1c23	inconclusive: 18.4 µM [falling, partial curve, poor fit]
COc1cccc(CNC(=O)c2cc(C)nc3c2c(C)nn3-c2cccc(F)c2)c1	inconclusive: 29.1 µM [activator, single point]
COc1cc(OC)cc(C(=O)NN2CCCCC2)c1	inconclusive: 5.8 µM [activator, partial curve, poor fit]
O=C(CN1CCN(c2cccc(Cl)c2)CC1)Nc1ccc([N+](=O)[O-])cc1C(=O)Nc1ccccc1F	inconclusive: 32.6 µM [falling, single point]
O=C(CSc1nnc2ccccn12)Nc1ccc2c(c1)OCCO2	inconclusive: 16.4 µM [activator, partial curve, poor fit]
Cc1nc(N/N=C/c2cccc(F)c2)cc(N2CCOCC2)n1	inactive
CC(=O)c1ccc(-c2csc3ncnc(Sc4nnnn4C)c23)cc1	inconclusive: 2.59 µM [falling, partial curve, poor fit]
COc1cc2c(cc1OC)CN(C(=O)CN1CCN(S(=O)(=O)c3ccccc3Br)CC1)CC2	active: 1.84 µM
O=C(c1ccc(CSc2nc3ccncc3n2Cc2ccccc2)cc1)N1CCCCCC1	inconclusive: 29.1 µM [falling, single point]
O=C(CSc1nc(=O)n2ccccc2n1)N1CCN(c2ccccc2)CC1	inconclusive: 4.61 µM [activator, single point]
O=C(Nc1nnc(C2CC2)o1)c1ccc(S(=O)(=O)N2CCc3ccccc3C2)cc1	inconclusive: 23.1 µM [falling, partial curve, poor fit]
Cc1ccc(Nc2c(-c3ccccn3)nc3cccc(C)n23)cc1	active: 6.51 µM
CCC1CCC2(CC1)NC(=O)N(CC(=O)Nc1cccc(S(=O)(=O)N(C)c3ccccc3)c1)C2=O (centres undefined)	active: 16.4 µM
Cc1cc(C)cc(OCC(=O)OCC(=O)N(CC(C)C)c2c(N)n(Cc3ccccc3)c(=O)[nH]c2=O)c1	inactive
NC(=S)N/N=C/c1c[nH]c2ccc(OCc3ccccc3)cc12	inconclusive: 23.1 µM [falling, single point]
Cc1csc(SCC(=O)NC(C)c2ccc(F)cc2)n1 (centres undefined)	inconclusive: 0.366 µM [falling, full curve, poor fit]
COc1ccc(-c2csc(NCc3ccco3)n2)cc1	inconclusive: 5.8 µM [activator, partial curve]
CC(C)Nc1ncnc2c1cnn2Cc1ccccc1Cl	active: 13 µM

Structure (SMILES)	Potency
COCC(C)NC(=O)c1cc(-c2cccc(OC)c2)on1 (centres undefined)	inconclusive: 20.6 µM [activator, single point]
CCOc1ccc(-c2c(C(=O)N/N=C/c3sccc3C)nnn2-c2nonc2N)cc1	inactive
COc1ccc(NC(=O)c2ccc3c(c2)OCCO3)cc1OC	inconclusive: 1.84 µM [activator, full curve]
Cc1ccc(NC(=O)C(=O)Nc2ccc(C)cn2)nc1	inconclusive: 8.2 µM [activator, partial curve]
O=C(NCc1ccco1)c1ccc2c(c1)N(Cc1ccccc1)C(=O)CS2	active: 23.1 µM
Nc1ccccc1C(=O)Nc1nccs1	inconclusive: 23.1 µM [activator, partial curve]
O=S(=O)(c1ccccc1)c1nc(NCc2cccnc2)sc1Cl	inconclusive: 23.1 µM [falling, single point]
O=C(COC(=O)C1(c2ccccc2F)CCCC1)NCc1cccs1	active: 20.6 µM
O=C(c1nc2ccccc2s1)N1CCN(c2ccccn2)CC1	inconclusive: 9.2 µM [activator, partial curve]
COc1ccccc1C1CCCN1Cc1nc(-c2ccc(C)s2)oc1C (centres undefined)	inconclusive: 20.6 µM [activator, partial curve]
Cc1nc(-c2ccccn2)sc1C(=O)Nc1ccc(F)cc1F	inactive
CCC(=O)N(Cc1ccco1)c1nc(-c2ccc(OC)cc2)cs1	inactive
COc1ccc(/C=N/NC(=O)CC#N)cc1Oc1nc(Cl)ncc1F	inactive
O=C(NCCc1ccccc1)c1cnc(Cl)c(Cl)c1	inconclusive: 4.11 µM [activator, full curve]
CC(=O)N1N=C2/C(=C/c3ccccc3)CCCC2C1c1ccccc1 (centres undefined)	inconclusive: 16.4 µM [falling, partial curve]
CCOc1ccc(S(=O)(=O)Nc2nc3ccccc3nc2Nc2ccc(OC)cc2)cc1	active: 25.9 µM
COc1cc2c(cc1NC(=O)c1cncc(Br)c1)oc1ccccc12	inconclusive: 20.6 µM [falling, single point]
Cc1ccc(C(C(=O)NC(C)(C)C)N(CC2CCCO2)C(=O)c2csnn2)cc1 (centres undefined)	inactive
CCc1ccc(NC(=O)Cn2c(=O)n(Cc3ccco3)c(=O)c3cccnc32)cc1	inactive
Cc1cc(C)c(C)c(C(=O)CSc2nnc(-c3ccc4[nH]c(C)c(C)c4c3)o2)c1C	active: 11.6 µM
Cc1ccccc1N(C(=O)c1snc(C(N)=O)c1N)C(C(=O)NCc1ccccc1)c1ccc(O)cc1 (centres undefined)	inconclusive: 18.4 µM [falling, single point]
CCOC(=O)C1=C(CSc2nc3ccccc3s2)NC(=O)NC1c1cccc([N+](=O)[O-])c1 (centres undefined)	inconclusive: 29.1 µM [falling, single point]
COc1ccccc1CCNC(=O)C(=O)NCC1OCCN1S(=O)(=O)c1ccc(Cl)cc1 (centres undefined)	inconclusive: 29.1 µM [falling, single point]
